Results taken from PubChem BioAssay AID493014 (National Center for Advancing Translational Sciences (NCATS), 2011).
The other results are listed elsewhere or left out. Further columns of the screen follow, without active or inactive calls. The list favours compounds with an active or inconclusive main result. Words in brackets tell the shape of the fitted curve; partial curves, single points and poor fits give uncertain potencies.

Assay: qHTS Assay to Find Inhibitors of Chronic Active B-Cell Receptor Signaling
Details: ABC-DLBCL IkBa-CBG/CBR reporter, luminescence ratio (green luciferase fused to IkBa over red control in TMD8 lymphoma cells), 4 h
How it was run: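 Doxycycline induced both beetle luciferases in TMD8 lymphoma cells; IKK-driven degradation limits the IkappaBalpha-fused green signal, while red luminescence normalises for cell number and nonspecific effects. Compounds tested up to 46 uM, 4 hrs.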

[1] = measured here: CBR red luminescence, cell number
[2] = measured here: IkBa-CBG green luminescence

## CCOC(=O)c1cc2ccc3ccccc3c2s1
[1]
  AC50: 16.4 µM [rising, partial curve]

## O=C(NC(=S)Nc1cccc([N+](=O)[O-])c1)C1CCCC1
[1]
  AC50: 12.6 µM [falling, partial curve, poor fit]

## CCOC(=O)NC(=S)Nc1ccc(C(C)(C)C)cc1
[1]
  AC50: 22.4 µM [rising, partial curve, poor fit]

## c1csc(-c2cnc3n2CCCC3)c1
[1]
  AC50: 6.31 µM [rising, single point]

## C/C(=N\NC(=O)c1ccccc1C)c1ccc(NC(=O)c2cccs2)cc1
[1]
  AC50: 8.91 µM [falling, partial curve]

## Nc1nc(NC(=O)c2ccc(Cl)cc2)nn1-c1ccccc1
[1]
  AC50: 23.1 µM [falling, single point]

## COc1ccc(NC(=O)COc2coc(CN3CCc4ccccc43)cc2=O)cc1
[1]
  AC50: 0.461 µM [falling, full curve, poor fit]

## O=C(/C=C/c1ccco1)Nc1ccc(N2CCCC2)cc1
[1]
  AC50: 0.0651 µM [falling, full curve, poor fit]

## COC(=O)N1C(=O)[C@](CC(C)C)(c2ccccc2)N1C(=O)OC
[1]
  AC50: 12.6 µM [falling, single point]

## Cc1nnc(SCC(=O)c2ccc(Br)cc2)s1
[1]
  AC50: 14.1 µM [falling, partial curve, poor fit]

## O=C(Nc1nc2ccc(S(=O)(=O)N3CCCCC3)cc2s1)c1ccncc1
[1]
  AC50: 0.82 µM [rising, full curve, poor fit]

## Cc1ccc(/C=C2/SC(=S)N(CCCC(=O)Nc3ccc(O)cc3)C2=O)cc1
[1]
  AC50: 2.24 µM [falling, partial curve]

## O=C1/C(=C/c2cccs2)SC(=S)N1c1cccc(O)c1
[1]
  AC50: 2.51 µM [rising, partial curve, poor fit]

## CCOC(=O)COc1ccc(Br)cc1/C=C\c1[nH]c(=O)[nH]c(=O)c1[N+](=O)[O-]
[1]
  AC50: 25.9 µM [falling, partial curve, poor fit]

## O=S(=O)(Nc1ncccn1)c1ccc(Cl)cc1
[1]
  AC50: 0.398 µM [rising, partial curve, poor fit]

## CC1CCCC(NC(=O)CCn2c(=S)oc3ccccc32)C1C (configuration not stated)
[1]
  AC50: 3.55 µM [rising, partial curve, poor fit]

## COc1ccccc1OCC(=O)Nc1nc(C)c(C)s1
[1]
  AC50: 12.6 µM [falling, single point]

## CCOC(=O)C1CCN(S(=O)(=O)c2ccc(-c3nc4ccccc4s3)s2)CC1
[1]
  AC50: 3.98 µM [rising, full curve, poor fit]

## O=C(CSc1cn(CCNC(=O)c2ccc3ccccc3c2)c2ccccc12)NCc1ccco1
[1]
  AC50: 23.1 µM [falling, single point]

## O=C(O)c1ccc(/C=N/Nc2ccc(C(F)(F)F)cn2)cc1
[1]
  AC50: 4.47 µM [falling, partial curve, poor fit]

## CC(Nc1ccc2c(c1)OCCO2)C(=O)N1CCc2ccccc21 (configuration not stated)
[1]
  AC50: 0.794 µM [falling, full curve, poor fit]

## O=C(Nc1ccc(Cl)cc1)c1cc(S(=O)(=O)N2CCc3ccccc32)ccc1F
[1]
  AC50: 8.91 µM [falling, partial curve]

## O=C(c1cccs1)N1N=C(c2ccccc2)CC1c1ccccc1 (configuration not stated)
[1]
  AC50: 20.6 µM [falling, single point]
[2]
  AC50: 20.6 µM [rising, partial curve, poor fit]

## CCN(CC)c1ccc(/C=N/N=C(N)N)c(O)c1
[1]
  AC50: 11.2 µM [rising, partial curve, poor fit]
[2]
  AC50: 15.8 µM [falling, partial curve]

## CCOc1cc(CNC2CCCC2)cc(Cl)c1OCc1ccccc1
[1]
  AC50: 35.5 µM [falling, single point]

## CN(C)c1ccc(/C=N/NC(=O)c2ccccc2Cl)cc1
[1]
  AC50: 1.84 µM [falling, partial curve]

## O=C(Nc1cccc2c1N(C(=O)c1ccco1)CCC2)c1ccco1
[1]
  AC50: 35.5 µM [rising, single point]

## Cc1ccc(CN2C(=O)/C(=C3\SC(N4CCOCC4)=NC3=O)c3cc(Br)ccc32)cc1
[1]
  AC50: 12.6 µM [rising, partial curve, poor fit]

## O=C(N/N=C/c1ccc(O)cc1)c1cc(-c2ccc3c(c2)OCO3)n[nH]1
[1]
  AC50: 2.06 µM [falling, partial curve, poor fit]

## Clc1ccc(-c2onc3c2CCCC3)cc1
[1]
  AC50: 3.66 µM [rising, full curve]

## O=C(Nc1ccc2c(c1)CCC2)c1ccc(Cl)nc1
[1]
  AC50: 0.0891 µM [rising, full curve, poor fit]
[2]
  AC50: 8.91 µM [rising, partial curve, poor fit]

## O=C(NCCN1C(=O)S/C(=C\c2ccc(OC(F)F)cc2)C1=O)c1cnccn1
[2]
  AC50: 23.1 µM [falling, single point]

## O=C(/C=C/c1ccccc1)NCc1ccco1
[1]
  AC50: 10 µM [falling, partial curve, poor fit]

## CC(C)NC(=O)CSc1nnc(-c2ccc3ncccc3c2)n1C
[1]
  AC50: 11.2 µM [rising, partial curve]

## CCn1c(C(=O)N2CCc3ccccc3C2)cc2sccc21
[1]
  AC50: 11.6 µM [falling, partial curve, poor fit]

## O=C(Oc1ccc(-c2ccccc2)cc1)C1C2CCCCC21 (configuration not stated)
[1]
  AC50: 29.1 µM [rising, single point]

## COC(=O)c1ccccc1C(=O)c1cccc2ccccc12
[1]
  AC50: 12.6 µM [rising, partial curve, poor fit]

## CC(=O)Nc1ccc(C2=NN(c3ccccc3)C(c3ccccc3)C2)cc1 (configuration not stated)
[1]
  AC50: 35.5 µM [falling, single point]

## CSCCC(NC(=O)c1ccc([N+](=O)[O-])cc1Cl)C(=O)OCC(=O)N(C)C (configuration not stated)
[1]
  AC50: 0.326 µM [rising, partial curve, poor fit]

## COc1ccc(NC(=O)CSCC(=O)OCc2cccc(OC)c2OC)cc1
[1]
  AC50: 25.9 µM [rising, partial curve, poor fit]

## O=C(O)c1cccc(COc2ccc3c(c2)CCC3)c1
[1]
  AC50: 1.78 µM [falling, full curve]

## Cc1ccc(C)c(OCCC(=O)OCC(=O)Nc2ccc(C)c(S(=O)(=O)N3CCCCC3)c2)c1
[1]
  AC50: 4.11 µM [rising, partial curve, poor fit]

## CCOC(=O)C1=C(CSc2nc3c(cc2C#N)CN(C)CC3)OC(N)=C(C#N)C1c1ccc(F)cc1 (configuration not stated)
[1]
  AC50: 0.651 µM [falling, full curve, poor fit]

## CC1=NN(c2ccccc2C(=O)O)C(=O)C1N=Nc1ccccc1 (configuration not stated)
[1]
  AC50: 14.1 µM [falling, partial curve]

## CN(CC(=O)Nc1ccc(Cl)c(C(F)(F)F)c1)C(=O)c1cccc(N2C(=O)CCC2=O)c1
[1]
  AC50: 0.184 µM [rising, full curve, poor fit]

## COc1ccc(C2(O)CC3CCC(C2)N3c2nc(C)cc(C)c2C#N)cc1 (configuration not stated)
[1]
  AC50: 0.184 µM [rising, partial curve, poor fit]

## Cc1ccccc1-c1nn2c(-c3ccccc3)nnc2s1
[1]
  AC50: 31.6 µM [falling, single point]

## CCC(OC(=O)c1cccs1)C(=O)NCc1ccc2c(c1)OCO2 (configuration not stated)
[1]
  AC50: 25.9 µM [rising, single point]

## C=C(C)C1CC=C(C)/C(=N/Nc2ccccc2[N+](=O)[O-])C1 (configuration not stated)
[1]
  AC50: 18.4 µM [rising, partial curve]

## CC1=C/C(=N\OS(=O)(=O)c2ccccc2)C(C(C)C)=CC1=O
[1]
  AC50: 29.1 µM [falling, single point]

## CC(C)(C)c1nnc2sc(SC/C(O)=C(\C#N)c3nc4ccccc4[nH]3)nn2c1=O
[1]
  AC50: 0.708 µM [falling, full curve, poor fit]

## CC(C)c1nnc(NC(=O)C2CCCN2C(=O)Nc2ccccc2F)s1 (configuration not stated)
[2]
  AC50: 35.5 µM [falling, single point]

## C=CCOc1ccc(C(=O)/C=C2/C(=O)Nc3ccccc32)cc1
[1]
  AC50: 35.5 µM [rising, partial curve, poor fit]
[2]
  AC50: 35.5 µM [falling, single point]

## O=C(Nn1c(O)c(C=C2N=c3ccccc3=N2)sc1=S)c1ccccc1
[1]
  AC50: 0.058 µM [falling, full curve, poor fit]

## COc1ccc(-n2cc(C#N)c(=O)n(Cc3ccc(F)cc3)c2=O)cc1
[1]
  AC50: 20 µM [falling, partial curve, poor fit]

## COc1ccc(COC(=O)NNC(=O)c2ccccc2Cl)cc1
[1]
  AC50: 29.1 µM [rising, single point]

## CN(C)S(=O)(=O)c1ccc(C(=O)NCc2cccs2)cc1
[1]
  AC50: 0.116 µM [rising, full curve, poor fit]

## Nc1ccc(N=Nc2ccccc2)c(N)n1
[1]
  AC50: 11.6 µM [rising, partial curve, poor fit]

## Cc1cccc2sc(N(CCCN(C)C)C(=O)CCS(=O)(=O)c3ccccc3)nc12
[1]
  AC50: 10 µM [falling, partial curve]

## Cc1ccccc1OCCCn1c(=O)sc2ccccc21
[1]
  AC50: 6.31 µM [rising, full curve, poor fit]

## O=C(c1cc(COc2ccc(F)cc2Cl)on1)N1CC[C@@H]2CCCC[C@H]2C1
[1]
  AC50: 6.31 µM [rising, single point]

## CCc1ccc(Nc2nnc(SCC(=O)Nc3cccc(S(=O)(=O)NC4=NCCCCC4)c3)s2)cc1
[1]
  AC50: 16.4 µM [falling, partial curve]

## CC(C)(CCl)C(=O)Nc1ccc(C(F)(F)F)cc1
[1]
  AC50: 11.2 µM [rising, partial curve, poor fit]
